In article PMC11389407 one finds binding data, which are given here for 2 substances.

By UniProt entry, the sequences of proteins in these tests, tags left out. Where a name states a change or a piece, a line headed by the entry shows the natural chain unless it says otherwise.
UniProt P08069: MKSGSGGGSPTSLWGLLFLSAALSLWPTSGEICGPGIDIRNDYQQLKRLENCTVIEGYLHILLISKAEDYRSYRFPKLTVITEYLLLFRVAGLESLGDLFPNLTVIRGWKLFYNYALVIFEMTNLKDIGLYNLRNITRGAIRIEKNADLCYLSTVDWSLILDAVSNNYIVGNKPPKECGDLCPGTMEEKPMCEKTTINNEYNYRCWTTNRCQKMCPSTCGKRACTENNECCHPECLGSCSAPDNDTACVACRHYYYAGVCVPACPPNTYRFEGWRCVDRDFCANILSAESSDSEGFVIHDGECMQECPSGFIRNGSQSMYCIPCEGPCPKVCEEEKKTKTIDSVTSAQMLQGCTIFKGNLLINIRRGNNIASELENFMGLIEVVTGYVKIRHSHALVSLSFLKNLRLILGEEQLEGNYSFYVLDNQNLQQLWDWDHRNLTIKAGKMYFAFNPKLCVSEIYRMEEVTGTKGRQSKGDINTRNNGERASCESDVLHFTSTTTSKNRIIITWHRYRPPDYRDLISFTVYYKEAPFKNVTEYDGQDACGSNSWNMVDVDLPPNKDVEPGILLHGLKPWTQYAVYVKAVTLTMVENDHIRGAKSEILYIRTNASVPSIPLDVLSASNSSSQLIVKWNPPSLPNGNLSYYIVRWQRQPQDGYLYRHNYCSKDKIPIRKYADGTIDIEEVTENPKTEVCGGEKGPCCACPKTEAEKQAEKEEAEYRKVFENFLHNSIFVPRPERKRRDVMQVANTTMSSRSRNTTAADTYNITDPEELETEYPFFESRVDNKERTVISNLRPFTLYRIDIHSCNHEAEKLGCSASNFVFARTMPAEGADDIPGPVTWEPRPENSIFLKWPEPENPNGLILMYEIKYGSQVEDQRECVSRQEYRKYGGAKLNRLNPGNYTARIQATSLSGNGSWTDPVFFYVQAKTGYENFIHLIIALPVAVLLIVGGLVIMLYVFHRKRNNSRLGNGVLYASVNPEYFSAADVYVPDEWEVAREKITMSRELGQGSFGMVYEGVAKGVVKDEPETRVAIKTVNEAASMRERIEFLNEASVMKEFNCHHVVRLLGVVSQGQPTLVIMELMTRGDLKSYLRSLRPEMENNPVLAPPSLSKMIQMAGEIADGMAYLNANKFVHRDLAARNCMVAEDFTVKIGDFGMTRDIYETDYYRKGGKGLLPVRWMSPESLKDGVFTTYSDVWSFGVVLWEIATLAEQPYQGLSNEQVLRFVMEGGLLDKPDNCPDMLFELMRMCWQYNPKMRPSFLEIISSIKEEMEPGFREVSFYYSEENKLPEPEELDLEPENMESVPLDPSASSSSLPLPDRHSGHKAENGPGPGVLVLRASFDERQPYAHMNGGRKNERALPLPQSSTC

Experiment [1] deals with RSV F with the K394R mutation (codon-optimized, in pcDNA3.1(+)) expressed in HEK293T cells (respiratory syncytial virus (strain of the construct not stated)) (UniProt P03420). Kind of experiment: flow cytometry on cells; HEK293T transfected with F-WT or F-K394R, soluble IGF1R (20 µg/mL) premixed with CL-A3-7 (20 µM) or not, added for 5 h; cells fixed, stained with anti-IGF1R and motavizumab; only the binder purified. In general terms: In flow cytometry, cells or beads pass a laser one at a time.

In experiment [2] the target is RSV F (codon-optimized, in pcDNA3.1(+)) expressed in HEK293T cells (respiratory syncytial virus (strain of the construct not stated)) (UniProt P03420). The experiment is described as above.
Experiment [3] has as its target RSV F with the K394R mutation (codon-optimized, in pcDNA3.1(+)) expressed in HEK293T cells (respiratory syncytial virus (strain of the construct not stated)) (UniProt P03420). Kind of experiment: co-IP; HEK293T transfected with plasmids expressing IGF1R, F-WT or F-K394R, with or without CL-A3-7 (20 µM) in the medium; lysates precipitated with anti-RSV F antibody on protein A/G beads, blotted for IGF1R.

Experiment [4] concerns the target RSV F (codon-optimized, in pcDNA3.1(+)) expressed in HEK293T cells (respiratory syncytial virus (strain of the construct not stated)) (UniProt P03420). The experiment is described as above.

Results are given in words; binding and its absence hold for the method and conditions named. For some of these results: In cells and extracts the contact can be indirect. Some entries that bind do so weakly or less than the wild type.

“extracellular domain of the human IGF1R protein (Met 1−Asn 932) (from UniProt P08069 31-932) (domain or fragment)”: the binding entry in experiment [1] and in experiment [2] was “binds” throughout.
As to “IGF1R expressed from a pcDNA3.1 plasmid in HEK293T cells (from UniProt P08069 31-1367) (receptor)”, the binding result in experiment [3] and in experiment [4] was “binds” each time.
